# From PubChem BioAssay AID2685 (National Center for Advancing Translational Sciences (NCATS), 2010)
# Hit rate of the full screen: of about 320,000 compounds, about 2,100 (0.66%) were called active. This list was built around the results that the source calls inconclusive (neither active nor inactive); the mix of calls is not that of the screen. Calls follow the shape of the dose curve; as a rule, active = well fitted inhibition curve with a large enough effect in the signal ratio, with a control signal flat (not every such curve was filed as active); inconclusive = small, poorly fitted or top-dose-only effect, or effect the other way, or a change in a side signal; inactive = flat fitted curve, though single readings scatter; the % refers to the signal ratio. Potencies of inconclusive entries are doubtful fits and often do not repeat.
# Assay: qHTS Assay for Lipid Storage Modulators in Drosophila S3 Cells
# Conditions: BODIPY lipid droplet fluorescence, 18-24 h, cells fed with added oleic acid; lipid storage change, negative = inhibition: at 46.1 µM (top of the series) unless noted
# Method in brief: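 Drosophila S3 cells loaded with oleic acid (400 uM, as added) and compounds at several concentrations; lipid droplets imaged by 488-nm laser-scanning cytometry, 500–530 nm intensity and object ratio to cell channel. Percent activity normalized to 20 uM Triacsin C.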
# % is scaled to controls: 0 for no effect and ±100 for the full control effect; potency is read from the fitted curve at half-maximal effect.
SMILES,"lipid storage change, negative = inhibition",Potency
COC(=O)c1cc(NS(=O)(=O)c2cccs2)cc(NS(=O)(=O)c2cccs2)c1,inconclusive,
CN(Cc1ccccc1F)C(=O)COc1ccc(C(=O)c2ccccc2)cc1,inconclusive: 7.8%,
C=CCn1c(SCC(=O)NC2CCS(=O)(=O)C2)nc2scc(C3CC3)c2c1=O (stereo unspecified),inconclusive: 39%,
Cc1cc(C)n(-c2cc(-n3nc(C)cc3C)ncn2)n1,,"inconclusive: 2.91 µM [activator, single point]"
CCN(CC)S(=O)(=O)c1cccc(NC(=O)COC(=O)C2=COCCO2)c1,inconclusive: 11.5%,
COC(=O)c1cc(S(=O)(=O)Nc2c(C)cccc2C)cn1C,,"inconclusive: 1.84 µM [activator, partial curve, poor fit]"
CCCOc1ccc(C(=O)NNC(=S)NC(=O)CC)cc1,,"inconclusive: 18.4 µM [falling, single point]"
CC(=O)c1ccc(Nc2ccc(-c3ccccc3C)nn2)cc1,,"inconclusive: 20.6 µM [falling, partial curve]"
CSCC[C@H](NC(=O)N1CCn2c1nc1ccccc12)C(=O)N[C@@H](C(=O)O)c1ccccc1,,"inconclusive: 0.0046 µM [activator, full curve, poor fit]"
COc1ccc(OCC(=O)N2CCc3c([nH]c4ccccc34)C2c2ccccn2)cc1 (stereo unspecified),inconclusive: -5.98%,
O=C(c1ccc(NS(=O)(=O)c2ccc3c(c2)OCCO3)cc1)N1CCCCC1,inconclusive: -14.4%,
CCO[C@H]1OC(C(=O)NCc2nc3ccccc3[nH]2)=C[C@@H](C2CC2)[C@@H]1CCCO,inconclusive: -15.7%,
O=C(CSc1nnc(-c2ccccc2Cl)o1)N1CCCC1,inconclusive: 39.2%,
Cn1ncc(Br)c1NC(=O)Nc1ccccc1,inconclusive: -8.72%,
O=C(Cn1c2ccccc2c2nc3n(c(=O)c21)CCS3)Nc1ccccc1C(F)(F)F,inactive,
O=C(O)c1cn(-c2ccc(F)c(F)c2)c2c(F)c(F)c(F)c(F)c2c1=O,,"inconclusive: 4.11 µM [falling, full curve]"
CC(C(=O)N1CCc2ccccc2C1)N(c1ccccc1)S(C)(=O)=O (stereo unspecified),,active: 2.06 µM
C=CCNC(=S)NNC(=O)c1ccco1,inconclusive: -11.6%,
CC(C)(C)NC(=O)C(c1ccc(F)cc1)N(Cc1cccs1)C(=O)c1ccc(CN2CCOCC2)o1 (stereo unspecified),inconclusive: -3.21%,
CCc1nnc(NS(=O)(=O)c2ccc(NC(=S)NC(=O)/C=C/c3cccs3)cc2)s1,inconclusive: 3.73%,
CCc1ccccc1NC(=O)N1CCc2ccccc2C1,inconclusive: 22%,
O=C(N=C1SC2CS(=O)(=O)CC2N1c1ccc(Cl)cc1Cl)C1CCCO1 (stereo unspecified),inconclusive: -49%,
O=C(O)c1ccc2c(c1)C(=O)N(Cc1ccccc1)C2=O,,"inconclusive: 0.206 µM [falling, full curve, poor fit]"
O=c1cc(-c2ccccc2)cc(-c2ccccc2)n1CCCO,,"inconclusive: 9.2 µM [activator, partial curve]"
CCC(Sc1nc(C)cc(=O)[nH]1)C(=O)Nc1sc2c(c1C#N)CCCC2 (stereo unspecified),inconclusive: 31.4%,
C=CCSc1nc2sc(-c3ccccc3)cc2c(=O)n1N,inconclusive: -19.4%,

# Quoted from the listing:
# Potency with COC(=O)c1cc(S(=O)(=O)Nc2c(C)cccc2C)cn1C reads inconclusive: 1.84 µM [activator, partial curve, poor fit]
# lipid storage change, negative = inhibition with CCc1nnc(NS(=O)(=O)c2ccc(NC(=S)NC(=O)/C=C/c3cccs3)cc2)s1 reads inconclusive: 3.73%
# lipid storage change, negative = inhibition with CN(Cc1ccccc1F)C(=O)COc1ccc(C(=O)c2ccccc2)cc1 reads inconclusive: 7.8%
# Potency with Cc1cc(C)n(-c2cc(-n3nc(C)cc3C)ncn2)n1 reads inconclusive: 2.91 µM [activator, single point]

# More results follow:

SMILES,"lipid storage change, negative = inhibition",Potency
COc1cc(/C=C(\C#N)c2ccccn2)ccc1OCC(=O)Nc1ccc(Br)cc1,inconclusive: 12.3%,
COC(=O)C1CCN(C(=O)c2cc3ccccc3oc2=O)CC1,inconclusive: 82.4%,
COc1ccc(C(=O)c2ccc(Br)cc2)c2ccccc12,inconclusive: -8.85%,
NC(=O)c1ccsc1NC(=O)COc1ccccc1,inconclusive: 99.3%,
Cc1cc(=O)[nH]c2n[nH]c(-c3ccccc3)c12,,"inconclusive: 0.259 µM [falling, partial curve, poor fit]"
CCN(CC)c1ccc(N2C(=O)c3ccccc3C2=O)cc1,inconclusive: 16.9%,
CCN(CC(=O)Nc1ccc2c(c1)OCCO2)C(=O)CN1C(=O)NC(C)(c2ccc(C)cc2)C1=O (stereo unspecified),inconclusive: 30.1%,
CCCNC(=O)c1onc(CSc2nc3ccccc3[nH]2)c1C(=O)NCCC,inconclusive: -27.1%,
CC12C(=O)N(Cc3ccccc3)C(=O)C1C1C=CC2C1 (stereo unspecified),inconclusive: -9.19%,
O=C(NCc1ccc(F)cc1Cl)C1CC(=O)N(C2CCCCCCC2)C1 (stereo unspecified),,"inconclusive: 29.1 µM [activator, single point]"
CCCC(=O)N1CCN(c2ccc([N+](=O)[O-])cc2Cl)CC1,,"inconclusive: 29.1 µM [falling, single point]"
CCOc1ccccc1C(=O)Nc1nnc(SCC(=O)N2CCOCC2)s1,inconclusive: 8.98%,
Cc1ccc(C)c(C(=O)Nc2nc3ccccc3[nH]2)c1,,"inconclusive: 29.1 µM [falling, single point]"
N#CCNC(=O)c1cccn1-c1ncc(C(F)(F)F)cc1Cl,inconclusive: -1.84%,
COCCCn1c(=O)c2ccccc2n(CC(=O)NCCC2=CCCCC2)c1=O,,"inconclusive: 29.1 µM [falling, partial curve, poor fit]"
O=C(NCc1cccs1)c1cnc(Cl)c(Cl)c1,inconclusive: 14.8%,
CCN(CC)CCCNC(=O)c1cc2nc(-c3ccccc3)cc(C(F)(F)F)n2n1,inconclusive: -31.5%,
COc1cccc(Cn2cnc3c(NS(=O)(=O)c4ccc(Cl)cc4)c(C)c(C)cc32)c1,,"inconclusive: 0.259 µM [rising, full curve]"
CC(C)CCN(C(=O)COc1ccc(C#N)cc1)c1c(N)n(Cc2ccccc2)c(=O)[nH]c1=O,inconclusive: -23.3%,
CCCCCCCCCOC(=O)C[n+]1csc(CCO)c1C,inconclusive: 18.9%,
c1ccc2c(c1)CCCN2c1nc2ccccc2n2cnnc12,,"inconclusive: 1.46 µM [activator, full curve, poor fit]"
Cc1oc(-c2ccc(Cl)cc2)nc1CS(=O)CC(=O)NCc1ccc2c(c1)OCO2 (stereo unspecified),inconclusive: -14.2%,
CCSc1nnc(NC(=O)CN(C)S(=O)(=O)c2ccc(F)cc2)s1,inconclusive: 37.1%,
O=C(COC(=O)c1ccc(O)cc1)Nc1cccc(S(=O)(=O)NC2=NCCCCC2)c1,inconclusive: 11.8%,
CCn1c(CNC(=O)c2ccccc2F)cc2cc(C)ccc21,inconclusive: 57.7%,
Cc1ccccc1-c1n[nH]c(=S)n1Cc1ccccc1,inconclusive: 8.81%,

SMILES,"lipid storage change, negative = inhibition",Potency
Cc1ccc(-c2cc(C(=O)N(C)Cc3cnn(C)c3C)c3cc(Br)ccc3n2)cc1,inconclusive: -16.2%,
c1ccc(-c2nc(NCCCn3ccnc3)c3ccccc3n2)cc1,inconclusive: 32.2%,
COc1ccc(CCN2CC(C(=O)Nc3nnc(Cc4ccccc4)s3)CC2=O)cc1OC (stereo unspecified),inconclusive: 15.8%,
O=S1(=O)N=C(Nc2ccc(S(=O)(=O)N3CCCCC3)cc2)c2ccccc21,inconclusive: 56.9%,
Cc1ccc(S(=O)(=O)Nc2cc(=O)[nH]c(SCC(=O)Nc3ccccc3C(F)(F)F)n2)cc1,inconclusive: -34.9%,
O=C(NCc1ccccc1Cl)C1CCC(=O)N(C2CCCC2)C1 (stereo unspecified),,"inconclusive: 29.1 µM [activator, single point]"
Cc1ccc(CN2CCN(Cc3ccc(-n4cccn4)cc3)CC2CCO)cc1 (stereo unspecified),inconclusive: 10.3%,
Cc1cc(OC(=O)N2CCCCC2)cc(C)c1Cl,inconclusive: 9.98%,
CC(C)NC(=O)NC(=O)COC(=O)c1ccc(OC(F)(F)F)cc1,inconclusive: -168%,
Cc1cc(=O)oc2c3c(cc(OCC(=O)NCc4ccccc4)c12)OC(C)(C)CC3,inconclusive: -32.3%,
CCOC(=O)CNC(=O)Cn1cnc2sc(C)c(S(=O)(=O)N3CCOCC3)c2c1=O,inconclusive: 57.6%,
Cc1cccc(CC(=O)N2CCCC2)c1,,"inconclusive: 2.06 µM [falling, single point]"
CCCCNC(=O)CCn1c(=O)c2ccccc2n(Cc2cc(C)ccc2C)c1=O,,"inconclusive: 0.92 µM [falling, partial curve]"
C[C@H](NC(=O)[C@@H]1Cc2ccccc2CN1)C(=O)NC1CCCC1,,"inconclusive: 23.1 µM [falling, single point]"
Cc1cc(SCC(=O)c2cccs2)n2nc(C)c(-c3ccccc3)c2n1,inconclusive: -44.2%,
COc1cccc(C(=O)NCC(=O)OCC(=O)Nc2ncc(Cl)cc2Cl)c1,inconclusive: 24.5%,
COc1ccc(OCCOC(=O)CNS(=O)(=O)c2ccc(SC)c([N+](=O)[O-])c2)cc1,inconclusive: 55.1%,
O=C(Nc1nc(-c2ccccc2)cs1)C1c2ccccc2Oc2ccccc21,inconclusive: -30.4%,
O=[N+]([O-])c1cccc(/C=N/n2cnnc2)c1O,inconclusive: 5.33%,
Cc1oc2cc3oc(=O)c(CCC(=O)N[C@H](C(=O)O)C(C)C)c(C)c3cc2c1C,,"inconclusive: 6.51 µM [activator, partial curve, poor fit]"
Cc1ccc2cc(CN(Cc3ccco3)C(=O)c3ccccc3)c(=O)[nH]c2c1C,,"inconclusive: 8.2 µM [activator, single point]"
Cc1cc(C)n(-c2nc3c(c(=O)[nH]c(=O)n3C)n2CC(O)COc2ccccc2)n1 (stereo unspecified),inconclusive: -18.6%,
O=C(Cc1cccs1)N1CCCC(c2nc3c(nnn3Cc3ccc(F)cc3)c(=O)[nH]2)C1 (stereo unspecified),inconclusive: -18.6%,
Cc1ccc(-n2c(C)cc(C(=O)COc3cccnc3[N+](=O)[O-])c2C)cc1,,"inconclusive: 29.1 µM [falling, single point]"
